This note sets out measurements from US20250049930A1 (CEDARS-SINAI MEDICAL CENTER, priority 2022, published 2025).

The nature of the data set: peptide made by a vendor (peptide synthesis; Fmoc-Met-Wang resin; HCTU/DIEA). The settings on record: conjugation step.

Take Pomalidomide-PEG4-RDFQSFRKMWPFFAM: the “final purity (method not given)” value is at least 98%.
